The subject of assay [1] is mIMCD3. In words: robust z score of cell number vs plate controls; higher = more cells (less cytotoxic). The conditions noted are these: 10 µM, 48 h.
In assay [2] the test system is mIMCD3. In words: robust z score of cilia incidence (% cells with single cilium) vs plate controls; higher = more ciliated cells. As to conditions: 10 µM; 48 h; siRNA: siScr.
For assay [3], the system named is mIMCD3. In words: robust z score of cilia incidence (% cells with single cilium) vs plate controls; higher = more ciliated cells (rescue of cilia loss). The conditions noted are these: 10 µM; 48 h; siRNA: siRpgrip1l.

Counter-ions that a name gives are not always drawn. ± gives the standard deviation of the averaged measurements. The list shows a part of the results. Plates or batches differ in their baseline, so values are only roughly comparable.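 The cells are a mouse kidney inner medullary collecting duct line, silenced either for the ciliary gene Rpgrip1l or with a non-targeting control siRNA.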

Turning to `CC[C@H](CO)Nc1nc(Nc2cccc(-c3ccccn3)c2)c2ncn(C(C)C)c2n1` [(R)-DRF053 dihydrochloride], the entries for the “robust z score of cell number” value in assay [1] (siRNA: siRpgrip1l) and in assay [1] (siRNA: siScr) were -20.2 ± 23 and -2.49 ± 5.1, respectively. Moreover, the figures for the “robust z score of cilia incidence” value in assay [2] and in assay [3] were 0.788 ± 0.66 and -4.42 ± 0.56, respectively.
For `COc1cc2c(cc1OC)-c1cc3nc4ccccc4nc3n1C(C)(C)C2`, in that order: -34.5 ± 30, -34.9 ± 21, -25 ± 6.3 and -44.1 ± 34.
In the case of `O=c1c(O)c(-c2ccc(O)c(O)c2)oc2cc(O)cc(O)c12` [Quercetin], the “robust z score of cell number” value in assay [1] (siRNA: siRpgrip1l) was -52 ± 44; in assay [1] (siRNA: siScr) it was -45.2 ± 3.4. For the same compound, the “robust z score of cilia incidence” value in assay [2] was -54.1 ± 19; in assay [3], -36.9 ± 4.
The matching figures for `CCCCCCCCCCCCCCCC(=O)O[C@H](CC(=O)O)C[N+](C)(C)C` (racemic) [(±)-Palmitoylcarnitine chloride]: -121 ± 86, -161 ± 140, -20.5 ± 4.7 and -48.05 ± 0.089.
The matching figures for `CNCCCCOc1ccccc1Cc1ccccc1` [Bifemelane hydrochloride]: -36.2 ± 12, -24.2 ± 3.9, -31.5 ± 9.2 and -35 ± 1.4.
In the case of `CCOC(=O)c1cnc2c(cnn2CC)c1NN=C(C)C` [Etazolate hydrochloride], the “robust z score of cell number” value in assay [1] (siRNA: siRpgrip1l) was -27.9 ± 33; in assay [1] (siRNA: siScr) it was -20.2 ± 9.6. Moreover, the “robust z score of cilia incidence” value in assay [2] was 1.94 ± 1.8; in assay [3], -5.32 ± 5.2.
As for `Nc1ccc(-c2nc3ccc(-c4nc5ccc(N)cc5[nH]4)cc3[nH]2)cc1`, the “robust z score of cell number” value was -4.75 ± 3.5 in assay [1] (siRNA: siRpgrip1l) and -1.93 ± 0.25 in assay [1] (siRNA: siScr). For the same compound, the “robust z score of cilia incidence” value is 0.741 ± 0.58 in assay [2] and -8.28 ± 6.4 in assay [3].
With `CCN(CC)CCOC(=O)c1cc(Cl)c(N)cc1OC` [SDZ 205-557 hydrochloride], the “robust z score of cell number” value in assay [1] (siRNA: siRpgrip1l) was -2.19 ± 2.8; in assay [1] (siRNA: siScr) it was 1.31 ± 1.8. For the same compound, the “robust z score of cilia incidence” value is -0.101 ± 1.1 in assay [2] and -14.5 ± 15 in assay [3].
The matching figures for `CC(C)NC[C@H](O)COc1cccc2[nH]ccc12` [(S)-(-)-Pindolol]: -11.1 ± 7.1, 1 ± 0.87, -0.132 ± 0.027 and -18.8 ± 0.81.
For `COc1cc2ncnc(Nc3ccc(Cl)cc3F)c2cc1OC`, the “robust z score of cell number” value in assay [1] (siRNA: siRpgrip1l) is -25.4 ± 7.5; in assay [1] (siRNA: siScr), -117 ± 88. The “robust z score of cilia incidence” value is -24.3 ± 1.5 in assay [2] and -35.7 ± 6.5 in assay [3].
For the compound `COc1cc2c(cc1OC)-c1c/c(=N\c3c(C)cc(C)cc3C)n(C)c(=O)n1CC2` [Trequinsin hydrochloride], the “robust z score of cell number” value in assay [1] (siRNA: siRpgrip1l) is -22.5 ± 9.5; in assay [1] (siRNA: siScr), -19.8 ± 2.9. Moreover, the results for the “robust z score of cilia incidence” value in assay [2] and in assay [3] were -36.9 ± 30 and -30.8 ± 17, respectively.
The matching figures for `CN1[C@@H](CC(=O)c2ccccc2)CCC[C@H]1C[C@H](O)c1ccccc1` [Lobeline hydrochloride]: 0.624 ± 2.4, -4.98 ± 4.5, -0.905 ± 4.6 and -7.28 ± 2.6.
On to `CCc1ccc(OCc2ccccc2C(=O)Nc2ccc3nc(C)cc(N)c3c2)cc1`, for which the “robust z score of cell number” value is -31.2 ± 10 in assay [1] (siRNA: siRpgrip1l) and -138 ± 100 in assay [1] (siRNA: siScr). The “robust z score of cilia incidence” value in assay [2] was -66.7 ± 16; in assay [3], -56.3 ± 7.
Turning to `O=C(O)c1ccc(-c2ccc3cc(O)c(C45CC6CC(CC(C6)C4)C5)cc3c2)cc1`, the results for the “robust z score of cell number” value in assay [1] (siRNA: siRpgrip1l) and in assay [1] (siRNA: siScr) were -32.6 ± 10 and -142 ± 110, respectively. The “robust z score of cilia incidence” value in assay [2] is -67.1 ± 15; in assay [3], -58.8 ± 7.8.
Consider `C=CCn1c(=O)n([C@@H]2O[C@H](CO)[C@@H](O)[C@H]2O)c2nc(N)[nH]c(=O)c21`, for which the entries for the “robust z score of cell number” value in assay [1] (siRNA: siRpgrip1l) and in assay [1] (siRNA: siScr) were -5.52 ± 2.4 and -0.605 ± 1.1, respectively. In addition, the “robust z score of cilia incidence” value in assay [2] is 0.636 ± 0.0066; in assay [3] it was -6.16 ± 0.26.

The values are drawn from the supplement of paper PMC12009310.
